Patent US20100279312A1
Results are given in words; binding and its absence hold for the method and conditions named. Binding seen in cells or lysates may run through a third protein. Some entries that bind do so weakly or less than the wild type.

Sequences of proteins named here, by UniProt entry; tags and fusion partners are left off.
UniProt Q76N89: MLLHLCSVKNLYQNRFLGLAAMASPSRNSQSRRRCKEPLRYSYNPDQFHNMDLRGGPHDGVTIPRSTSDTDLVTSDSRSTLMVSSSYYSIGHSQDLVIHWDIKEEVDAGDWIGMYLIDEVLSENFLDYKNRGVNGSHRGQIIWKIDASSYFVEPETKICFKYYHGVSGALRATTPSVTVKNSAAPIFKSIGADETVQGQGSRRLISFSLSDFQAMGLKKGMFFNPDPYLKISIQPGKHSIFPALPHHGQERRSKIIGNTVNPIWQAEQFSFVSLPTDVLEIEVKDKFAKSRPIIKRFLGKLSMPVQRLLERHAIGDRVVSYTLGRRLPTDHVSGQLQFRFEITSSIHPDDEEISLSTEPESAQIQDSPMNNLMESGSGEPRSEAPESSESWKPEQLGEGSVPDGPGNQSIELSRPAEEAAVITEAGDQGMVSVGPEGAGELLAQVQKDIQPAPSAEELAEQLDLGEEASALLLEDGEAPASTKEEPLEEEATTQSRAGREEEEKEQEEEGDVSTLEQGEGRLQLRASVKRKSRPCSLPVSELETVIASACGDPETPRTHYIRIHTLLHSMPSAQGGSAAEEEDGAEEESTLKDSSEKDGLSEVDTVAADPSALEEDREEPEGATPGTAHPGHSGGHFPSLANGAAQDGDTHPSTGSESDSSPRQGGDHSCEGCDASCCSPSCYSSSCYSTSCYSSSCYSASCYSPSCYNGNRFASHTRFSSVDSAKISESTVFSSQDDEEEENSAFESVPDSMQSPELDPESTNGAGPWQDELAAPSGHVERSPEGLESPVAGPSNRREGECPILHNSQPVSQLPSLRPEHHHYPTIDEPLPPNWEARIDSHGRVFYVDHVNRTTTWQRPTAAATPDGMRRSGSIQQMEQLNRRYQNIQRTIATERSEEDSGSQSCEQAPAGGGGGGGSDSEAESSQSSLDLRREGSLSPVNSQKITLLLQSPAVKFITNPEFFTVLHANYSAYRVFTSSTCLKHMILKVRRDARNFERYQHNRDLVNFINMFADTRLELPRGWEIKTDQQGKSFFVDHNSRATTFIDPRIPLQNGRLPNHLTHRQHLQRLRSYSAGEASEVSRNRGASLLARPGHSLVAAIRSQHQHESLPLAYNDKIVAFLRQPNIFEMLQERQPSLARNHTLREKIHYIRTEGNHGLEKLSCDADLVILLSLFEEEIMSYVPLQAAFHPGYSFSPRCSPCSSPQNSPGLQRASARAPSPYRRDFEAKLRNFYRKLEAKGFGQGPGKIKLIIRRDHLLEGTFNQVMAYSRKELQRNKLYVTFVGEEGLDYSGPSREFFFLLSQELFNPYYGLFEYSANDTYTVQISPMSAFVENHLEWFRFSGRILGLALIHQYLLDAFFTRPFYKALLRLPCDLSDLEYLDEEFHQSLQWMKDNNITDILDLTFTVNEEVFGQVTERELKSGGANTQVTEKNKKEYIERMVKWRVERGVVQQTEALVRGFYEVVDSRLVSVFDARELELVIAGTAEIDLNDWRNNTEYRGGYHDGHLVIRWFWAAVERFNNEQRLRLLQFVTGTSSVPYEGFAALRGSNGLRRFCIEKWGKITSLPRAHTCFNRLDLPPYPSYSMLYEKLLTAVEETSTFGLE

Biological target: p53 of U2OS cells (human) (UniProt P04637)
Test: co-immunoprecipitation with anti-NEDL1 antibody from cytoplasmic and nuclear fractions of Xpress-NEDL1-transfected U2OS cells with or without cisplatin, then Western blotting

binding: binds
Substance: Xpress-tagged NEDL1 (from UniProt Q76N89 1-1606) (enzyme)
